Over roughly 33,000 sequences, “E-score (-0.5 to 0.5)” has its median near -0.0014; the highest 2% begin near 0.25. The list shows a part of the results.
biological target: T1, Cad1 (UniProt P24813); assay: PBM E-score (8-mer binding enrichment) (E-score (-0.5 to 0.5)); higher = stronger / more preferred TF binding; settings: protein concentration: 100 nM; construct: GST-full length
T1 sequence: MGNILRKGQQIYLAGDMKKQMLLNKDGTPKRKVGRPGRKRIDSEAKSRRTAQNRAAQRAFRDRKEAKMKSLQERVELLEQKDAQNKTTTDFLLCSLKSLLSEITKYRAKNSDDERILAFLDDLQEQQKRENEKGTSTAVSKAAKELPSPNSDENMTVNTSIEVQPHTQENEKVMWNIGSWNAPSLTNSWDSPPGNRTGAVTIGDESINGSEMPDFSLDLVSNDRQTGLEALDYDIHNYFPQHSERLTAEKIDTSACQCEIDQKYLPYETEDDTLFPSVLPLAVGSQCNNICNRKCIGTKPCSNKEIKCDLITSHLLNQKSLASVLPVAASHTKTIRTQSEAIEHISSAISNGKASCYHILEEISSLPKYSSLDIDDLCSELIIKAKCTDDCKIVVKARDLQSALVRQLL
Method in brief: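 Using PURExpress in vitro transcription/translation, GST-tagged yeast transcription factors were made in full-length or DNA-binding-domain form. These were applied at about 100-200 nM to double-stranded universal all-10-mer Agilent arrays, and bound protein was detected with fluorescent anti-GST. Scans were normalised with masliner before the Universal PBM Analysis Suite assigned E-scores to ungapped eight-base words pooled with their reverse complements.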

Sequence	PBM E-score
ATACGCGA	0.148
CAGTCTCG	-0.184
CTCTACTA	-0.169
ATACAGGG	0.0876
CCGGATCA	-0.0424
GTTGGCGA	0.0821
AATACGAT	0.169
CCGATGCA	-0.0515
ATACCGCA	-0.0232
CTGGTCCA	-0.13
CCTGTGCC	-0.136
GATAGCGA	0.0786
CCAGCTAG	-0.0767
AGAAGAAG	-0.179
CTCAGGCA	0.034
ACACCATA	0.0574
CCCATCTA	-0.157
ACTACGTA	0.12
ATGATCCA	-0.283
AATCTAAC	0.0036
TAACCATA	-0.0259
AGCATATC	0.025
AATATTGT	0.228
GCGTTTGA	-0.134
AAAGAGGG	-0.156

Sequence	PBM E-score
AGCGCTAC	-0.068
CTGCCATA	0.188
GATCCCAC	0.126
ATTTGCGC	0.151
AATCTTAG	0.0351
AGTGTTAT	0.0689
GTAGATGA	0.118
GGCGAAAC	0.177
TGGATCCA	0.173
GGTTGGCA	-0.167
CTAAGTCA	0.0905
CATTCGTC	0.0375
ATAGCTGC	0.202
GCGGGCAA	0.0324
AATTCGCC	0.154
CTACGTGA	-0.114
CCCAACTA	0.191
CCCGAGAG	-0.141
AGCCATCA	0.169
GACTGAAA	0.133
AATATTAT	0.194
CGTTAACC	0.0636
CGAAAACC	-0.0625
TCTAGGAA	-0.16
GAGAAAGA	0.121

Sequence	PBM E-score
GAGCAAAA	-0.0143
CACTACGC	-0.154
ATCCAGGA	0.0813
TGACTACA	-0.0163
AACCATAC	-0.0421
CAACTGCG	-0.0285
CTCCCTCC	-0.248
CACTTGGA	0.0343
ACTAGTAA	0.15
AGAGTCAC	-0.0263
CAGGTAGG	-0.00141
GAACAGCC	-0.096
ACATTCGG	0.0355
AGATACTA	0.0948
AGGCCCTA	-0.00699
AGTAAGGG	0.0236
ATCTAGTG	-0.0859
CGACTTAA	0.0481
CGAACTGC	-0.0728
AGAAACTG	0.00645
CTCCTGCC	0.00246
GGCAATAA	0.0187
TGTCGAAA	0.0189
GGAAAGCA	0.0683
CTGGTGAC	-0.144

Sequence	PBM E-score
CAGATTGA	0.0187
CAATAGTG	0.0793
GGTGGAGA	-0.199
CAAGACTG	-0.0299
AGGGGTGG	-0.023
GATCAAGC	-0.0801
CGCCTGGC	-0.00971
ACAAGACG	-0.105
CATCCGTA	0.0222
CACACGTG	-0.0205
GAGCACCA	-0.0765
CCGCCAAG	-0.229
ACCTAAGA	-0.118
CCGATTTA	0.0459
ACAAATCT	0.163
ATACCATG	-0.0699
AGGAATAA	0.0754
ACCCTGCC	-0.176
GGCTCGCA	0.0651
GATGCGAA	-0.0837
ATGTATCC	-0.0106
ATTGGAAG	-0.106
GCACAATA	0.0602
ACCAAGCC	0.0385
AGTTGTGG	0.0768

Sequence	PBM E-score
AAGGCTAC	-0.0943
ACGTGTGG	-0.0185
CTCGGCAC	-0.112
CGTTCTGC	0.221
GGGCAAAC	-0.0769
TAGCCGGA	0.107
CCCAGAAA	0.0763
GAAGAGTA	-0.0219
AACGACAG	0.0039
GACGCCAA	-0.067
AAATAGAG	-0.0934
CCAAGCTA	-0.194
CGGGAACA	0.0385
TCTTGGCA	0.0914
AATCTAAG	0.0856
AGTTTAAT	0.144
ACATGGTC	0.0225
CCTGAGCC	-0.176
AAACCGCT	-0.0723
CCAACATC	-0.0678
ATTCACCA	0.135
CTTGTACA	-0.0604
CTACACCA	-0.0458
AAACGAGC	0.0793
ACACGTCT	-0.107

Sequence	PBM E-score
GCAATCGC	-0.0759
ATTGTCTA	0.17
ATCTGATA	-0.203
CCACAATA	-0.0654
CTAATTGA	0.00473
CGTAGGCA	-0.221
AATGGCTC	0.00333
GCTCGTTA	0.052
ATAACAAC	0.0949
ATATTAAC	0.224
GCATACCC	-0.194
CTCTGCCA	-0.194
CTCGGACA	0.146
CCTAACTC	-0.153
CAAACGTC	-0.169
GATATCAA	0.211
GAACTGCA	0.0499
GACTCCAA	-0.0508
TGTGGCAA	0.0896
CATGGGAG	-0.0423
CAAGACTA	-0.188
ACACTGAA	0.154
GCGACAAA	-0.00034
ATCTCAAA	0.0313
CAGACTTA	-0.0002

Reprinted at random: 4 records from the list, in no set order.
Sequence	PBM E-score
GCAATCGC	-0.0759
CCACAATA	-0.0654
CCTAACTC	-0.153
CTAATTGA	0.00473

Additional records

Sequence	PBM E-score
CGCGGTAG	0.067
CCTGACCA	0.106
GCTACAGA	-0.224
TCATACCA	0.0936
ACAGGATA	0.0385
TCTCCGAA	0.0727
AACATACC	-0.0577
AGATTGAA	0.0719
CCCGCCCG	0.198
ACCTCCCC	-0.167
ATACCTCC	-0.104
ACGCTCCA	0.0354
GCGGTAAA	0.112
CGGCCTCC	-0.0902
GAATAGGC	-0.0653
AAACGATC	-0.00352
AGCTGACC	0.198
CGCGAACG	0.139
AAGGCCGA	0.176
ACCTACGC	0.106
ATGGACGC	0.114
AGACGTAG	0.0693

Shown bar-delimited: part of the list above
Sequence | PBM E-score
TCATACCA | 0.0936
TCTCCGAA | 0.0727
CGGCCTCC | -0.0902
AGACGTAG | 0.0693

2 consecutive entries already listed, quoted:
Sequence	PBM E-score
ACAGGATA	0.0385
TCTCCGAA	0.0727
